Source: patent publication US5116839A, “Use of isoxazolin-3-one derivatives as antidepressants” (Sankyo Company, Limited, priority 1989, dated 1992)
At least one structure is not confirmed: it was looked up by name or label, or the drawing left a doubt.

Columns and labels:
[1] = system: spontaneous locomotor activities in mice treated with L-5-HTP; experiment: Potentiating effect upon spontaneous locomotor activities in mice treated with L-5-HTP; type: in vivo, mouse (male ddY); conditions: 3 mg/kg; P<0.01
Procedure: (§1) The procedure employed in the tests will be explained concretely below:
3. Potentiating effect of compounds upon spontaneous locomotor activities in mice treated with L-5-HTP
Male ddY mice (4 weeks old, body weight 22-25 g) were used, after divided into groups each consisting of 15 mice. Before administration of MK-486 (20 mg/kg, IP), either the test compound formulation or vehicle (control group) was orally administered. At 30 min after administration of […], L-5-HTP (100 mg/kg IP) was injected. Spontaneous locomotor activities were determined from 15 minutes after L-5-HTP. For this determination, 3 mice were placed in a locomotor counter (Automex) for an hour and the total count noted. Five such apparatuses were used for each dose, in order to eliminate different sensitivities of each apparatus. Thus, 15 mice were used in total for each dose. The average count and SE were calculated from the 5 determinations for each dose, and statistically analyzed versus control group using Student's two-tailed t-test.

[2] = system: spontaneous locomotor activities in mice treated with L-DOPA; experiment: Potentiating effect upon spontaneous locomotor activities in mice treated with L-DOPA; type: in vivo, mouse (male ddY); conditions: 50 mg/kg
Procedure: as §1
2. Potentiating effect of compounds upon spontaneous locomotor activities in mice treated with L-DOPA
Male ddY mice (5 weeks old, body weight 30-33 g) were used, after divided into groups each consisting of 5 animals (experiment 1) or 15 animals (experiment 2). The test compounds were prepared as described in the anti-reserpine study, and given orally 20 minutes before administration of MK-486. In control animals, saline was similarly administered. In order to prevent decomposition of L-DOPA at the peripheral site, the mice were intraperitoneally given MK-486 (carbidopa) at a dose of 20 mg/kg and treated intraperitoneally 30 minutes later with L-DOPA. The mice were placed in a cage on a locomotor activity counter (AUTOMEX-11), one-by-one (experiment 1) or 3 mice a cage (experiment 2). Spontaneous locomotor activities were determined for an hour, and the average locomotor activity at each dose was calcultated from 5 counts. The spontaneous locomotor activity in animals treated with the compound was statistically analyzed versus the control group using Student's two-tailed t-test.

O=c1cc(-c2ccc(Cl)cc2)on1C[C@@H](O)CN1CCOCC1 [Compound 22, (S)-5-(p-Chlorophenyl)-2-(2-hydroxy-3-morpholinopropyl)isoxazolin-3-one]
Spontaneous locomotor activity on treatment with L-5-HTP (in words) [1]: significantly potentiated
Spontaneous locomotor activity with treatment of L-DOPA (in words) [2]: significantly increased
